The nature of this assay: qHTS Assay for Lipid Storage Modulators in Drosophila S3 Cells.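 On cell number change: cells counted by Cell Tracker Red CMTPX staining in the red channel.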 Conditions: BODIPY lipid droplet fluorescence, 18-24 h; for cell number change: measured here: cell count max response, cells fed with added oleic acid. The source says:
NIH Molecular Libraries Probe Production Centers Network [MLPCN] NIH Chemical Genomics Center [NCGC] MLPCN Grant: 1 R03 MH085686-01 Assay Submitter (PI): Beller, Mathias; Max-Planck-Institut fur Biophysikalische Chemie NCGC Assay Overview: Storing lipids as a reservoir for energy or the anabolism of elementary metabolites is a common feature of probably all cells and is conserved from bacteria to humans. The universal cellular lipid storage organelle is the so-called lipid storage droplet (LD). Although ubiquitous, LDs share a simple structure composed of a hydrophobic core that harbors the storage lipids, which is shielded by a droplet-specific phospholipid monolayer to which proteins are attached. The current model of LD biogenesis involves an incorporation of the lipid core into the membrane leaflets of the endoplasmic reticulum (ER) followed by a subsequent budding-like maturation of a LD, which ultimately pinches off. Once released, LD volume can increase by localized lipogenesis or fusion of existing droplet. Storage lipids are re-mobilized enzymatically by lipase activity. Lipase regulation in the adipocyte is heavily studied and involves multiple components including catecholamine signaling, the LD-associated proteins Perilipin and comparative gene identification (CGI-58) and at least two lipases named hormone sensitive lipase (HSL) and adipocyte triglyceride lipase (ATGL). LD regulation outside of the adipocyte is poorly understood and only few components are known. However, there is an urgent need to learn more about ectopic fat depots as mislocalized storage of lipids, for example in the liver or muscle, is an eminent health problem associated with insulin resistance or the metabolic syndrome. We developed a laser-scanning cytometer assay to enable 1,536-well screening and combined the results of the small molecules screen with an RNAi database based on lipid storage.
Triacsin C (Sigma-Aldrich T-4540), an inhibitor of long-chain fatty acyl CoA synthetase that blocks synthesis of triglycerides, was used as a positive control for lipid under-storage. A total of 23 nL of compound solution of different concentrations were transferred to the assay plates using a Kalypsys pin tool equipped with a 1,536-pin array containing 10-nL slotted pins (FP1S10, 0.457-mm diameter, 50.8 mm long; V&P Scientific). One microliter of oleic acid (400 uM) was added, and the plate was lidded with stainless steel rubber gasket lined lids containing pinholes. […] Fluorescence was detected by excitation of the fluorophores with a 488-nm laser on an Acumen Explorer (TTP Lab Tech). The total intensity in channel 2 (500-530 nm) reflected lipid droplet accumulation. Cells were detected using channel 3 (575-640 nm) with 5-um width and 100-um depth filters. The ratio of the number of objects in PMT channel 2 over the number of objects in PMT channel 3 was also calculated. Percent activity was computed relative to an internal control (100% inhibited lipid droplet deposition due to the presence of 20 uM Triacsin C), which was added to 32 wells/plate.

Where [1] appears, read: measured here: lipid fluorescence (Fed channel) AC50, cells fed with added oleic acid.
Where [2] appears, read: measured here: cell number channel AC50, cells fed with added oleic acid.

The other results are listed elsewhere or left out. The main result of the screen is listed elsewhere. These columns were measured beside it and carry no call. Compounds called inactive in the main read-out are mostly missing here. The note in brackets gives the kind of curve behind each potency; many fits are weak.

As usually defined, the AC50 is the midpoint of the concentration-response curve, whichever way the signal moves.

With `O=C1Nc2ccccc2Nc2ncccc21`, the cell number change is -11%.

On to `COc1ccc(CN2CC(=O)N(c3ccc(Cl)cc3)C2=S)cc1OC`, for which the AC50 under setting [1] was 6.51 µM [rising, single point]. Consider `Cc1cccc(-c2nc(CS(=O)CC(=O)NC(C)CCc3ccccc3)c(C)o2)c1` (configuration not stated), for which, under setting [2], the AC50 is 1.64 µM [rising, partial curve]. Regarding `CS(=O)(=O)N1CCC(C(=O)NCc2ccco2)CC1`, the cell number change is -15.1%. For the same compound, the half-maximal activity concentration (AC50) under setting [1] was 29.1 µM [falling, single point].

Regarding `CC1=NNC(=O)C1CC(=O)N/N=C/C(Br)=C/c1ccccc1` (configuration not stated), the AC50 under setting [2] is 0.82 µM [rising, partial curve, poor fit].

`C=CCn1c(SCC(=O)NC(=O)Cc2ccccc2)nc2ccccc2c1=O`: the cell number change amounted to 17.4%. The concentration at half-maximal activity (AC50) under setting [1] is 32.6 µM [falling, single point]. In the case of `O=C(Cn1ccc2ccccc2c1=O)NCCC(=O)Nc1ccc(F)cc1F`, the cell number change was -2.86%. Same read-out and setting: the same measure for `Cc1cc2c(c(=O)o1)C1O[C@](c3ccsc3)(Cc3cc(C#N)ccc31)O2`: 17.2%. On to `NS(=O)(=O)c1ccc(-n2cccc2C=O)cc1`, for which the cell number change was 10.5%. Further, the AC50 under setting [1] was 18.4 µM [falling, partial curve]. With `C=CCNC(=O)c1onc(CSc2cccc(OC)c2)c1C(=O)NCC=C`, the cell number change was found to be 9.67%. Moreover, the AC50 under setting [1] is 0.0259 µM [rising, full curve, poor fit]. `CC(=O)Oc1ccc(-c2csc(Nc3ccc(Cl)cn3)n2)cc1`: the cell number change was -53%. The AC50 under setting [2] is 20.6 µM [falling, partial curve]. The AC50 under setting [1] was 2.91 µM [falling, single point].

Take `N#Cc1ccsc1NC(=O)CCc1ccccc1`: the cell number change was found to be 28.1%. Further, the AC50 under setting [1] is 5.8 µM [rising, full curve].

Regarding `CCOC(=O)c1[nH]c2ccc(OC)cc2c1NC(=O)c1nonc1C`, the cell number change is -20.4%. Regarding `CCOC(=O)c1sc(NC(=O)CCc2ccc(OC)cc2)nc1C`, the cell number change is -1.32%. With `O=S(=O)(c1ccc(F)cc1)c1nc(-c2ccco2)oc1Nc1ccccc1`, the cell number change is 12.9%. Further, the half-maximal activity concentration (AC50) under setting [2] was 0.206 µM [falling, full curve, poor fit]. Further, under setting [1], the AC50 is 1.84 µM [rising, partial curve].

Regarding `CCC(C)NC(=O)C1CCN(S(=O)(=O)c2cc([N+](=O)[O-])ccc2Cl)CC1` (configuration not stated), the cell number change was 9.36%. Also, the half-maximal activity concentration (AC50) under setting [1] is 29.1 µM [rising, single point]. For the compound `O=C(COC(=O)Cn1cc(C(F)(F)F)ccc1=O)Nc1ccc(Br)cc1F`, the cell number change is -15.3%.

As to `CCc1ccc(NC(=O)C(NS(=O)(=O)c2ccc3c(c2)CCN3C(C)=O)C(C)C)cc1` (configuration not stated), the cell number change turned out to be 34.2%. Further, the half-maximal activity concentration (AC50) under setting [2] was 29.1 µM [rising, single point]. For the same compound, under setting [1], the AC50 was 29.1 µM [falling, single point]. `O=C(CCNC(=O)c1ccccc1Cl)Nc1cccc(S(=O)(=O)N2CCOCC2)c1`: the cell number change was -3.89%. Also, the half-maximal activity concentration (AC50) under setting [1] was 0.82 µM [falling, full curve].

The record behind these values is PubChem BioAssay AID2685 (National Center for Advancing Translational Sciences (NCATS), 2010).
